These results are taken from PubChem BioAssay AID220 (DTP/NCI, 2004).

The list is a part of this screen's results and no random one: it gathers some chemical classes. Not every dose and run of a compound is shown. T/C gives the treated animals as a percentage of the vehicle group. Schedule codes are those of the source, read here as Q, the interval in days (D) or hours (H), X, the number of doses. Some T/C values are marked as having no survivor count here; that says nothing about deaths at the dose. Some entries were tested several times; the results are listed from low to high.

The experiment relates to CD8F1 mice, subcutaneous mammary adenocarcinoma, T/C%. The experiment is described as follows: NCI In Vivo Anticancer Drug Screen. Data for tumor model Mammary Adenocarcinoma CD8F1 (subcutaneous) in CD8F1. As to conditions: higher T/C = larger tumour. Here is the method: The antitumor activity of compounds was measured in mice bearing transplantable tumors. Survival or tumor size were measured and the results are expressed as the measurement made in the treated group (T) divided by the measurement made in the vehicle treated control group (C). The tumor model used in this assay is Mammary Adenocarcinoma CD8F1 (subcutaneous) in CD8F1

Where [1] appears, read: T/C endpoint: median tumor weight (est.), dose: 1.25 mg/kg/injection, schedule: Q07DX005 (ip), vehicle: saline, evaluated on day 30.
[2] abbreviates: T/C endpoint: median tumor weight (est.), dose: 2.5 mg/kg/injection, schedule: Q07DX005 (ip), vehicle: saline, evaluated on day 30.
Where [3] appears, read: T/C endpoint: median tumor weight (est.), dose: 4.0 mg/kg/injection, schedule: Q07DX005 (ip), vehicle: saline, evaluated on day 30.
Where [4] appears, read: T/C endpoint: median tumor weight (est.), dose: 5.0 mg/kg/injection, schedule: Q07DX005 (ip), vehicle: saline, evaluated on day 30.

With `CC(=O)OC[C@]12C[C@H](OC(=O)CC(C)C)C(C)=C[C@H]1O[C@@H]1[C@H](O)[C@@H](O)[C@@]2(C)[C@@]12CO2`, the T/C reads like this: (T/C endpoint: median tumor weight (est.), dose: 0.25 mg/kg/injection, schedule: Q07DX005 (ip), vehicle: saline, evaluated on day 30) 85 % of control [survivor count not shown]; (T/C endpoint: median tumor weight (est.), dose: 1.0 mg/kg/injection, schedule: Q07DX005 (ip), vehicle: saline, evaluated on day 30) 100 % of control [survivor count not shown]; under setting [1], 108 % of control [survivor count not shown]; (T/C endpoint: median tumor weight (est.), dose: 2.0 mg/kg/injection, schedule: Q07DX005 (ip), vehicle: saline, evaluated on day 30) 35 [survivor count not shown] and 51 % of control [survivor count not shown]; under setting [2], 81 % of control [survivor count not shown]; under setting [3], 32 [survivor count not shown] and 50 % of control [survivor count not shown]. Also, the T/C by setting is: under setting [4], 35 % of control [survivor count not shown]; (T/C endpoint: median tumor weight (est.), dose: 10.0 mg/kg/injection, schedule: Q07DX005 (ip), vehicle: saline, evaluated on day 30) 34 % of control [survivor count not shown]; (T/C endpoint: median tumor weight change, dose: 1.0 mg/kg/injection, schedule: Q01DX001 (ip), vehicle: suspension in saline, evaluated on day 36) 160 % of control [survivor count not shown]; (T/C endpoint: median tumor weight change, dose: 2.0 mg/kg/injection, schedule: Q01DX001 (ip), vehicle: suspension in saline, evaluated on day 36) 142 % of control [survivor count not shown]; (T/C endpoint: median tumor weight change, dose: 4.0 mg/kg/injection, schedule: Q01DX001 (ip), vehicle: suspension in saline, evaluated on day 36) 159 % of control [survivor count not shown]; (T/C endpoint: median tumor weight change, dose: 5.0 mg/kg/injection, schedule: Q01DX001 (ip), vehicle: saline, evaluated on day 32) 34 % of control [survivor count not shown]. Besides, where the note is “T/C endpoint: median tumor weight change, dose: 8.0 mg/kg/injection, schedule: Q01DX001 (ip), vehicle: suspension in saline, evaluated on day 36”, the T/C is 200 % of control [survivor count not shown].
Regarding `C=C(C)C(=O)OCC12CCC(C)=CC1OC1C(=O)C(OC(=O)C(=C)C)C2(C)C12CO2` (stereo not given), the T/C reads like this: (T/C endpoint: median tumor weight change, dose: 2.5 mg/kg/injection, schedule: Q01DX001 (ip), vehicle: distilled water + Tween-80, evaluated on day 33) 40 % of control [survivor count not shown]; (T/C endpoint: median tumor weight change, dose: 5.0 mg/kg/injection, schedule: Q01DX001 (ip), vehicle: distilled water + Tween-80, evaluated on day 33) 81 % of control [survivor count not shown].
Turning to `CC(=O)OCC12CCC(C)=CC1OC1C(O)C(O)C2(C)C12CO2` (stereo not given), the T/C is, setting by setting: (T/C endpoint: median tumor weight (est.), dose: 0.5 mg/kg/injection, schedule: Q07DX005 (ip), vehicle: saline, evaluated on day 30) 37 % of control [survivor count not shown]; under setting [3], 13 % of control [survivor count not shown].
For the compound `CC(=O)OC[C@]12C[C@H](OC(=O)CC(C)C)C(C)=C[C@H]1OC1[C@H](O)[C@@H](OC(C)=O)[C@@]2(C)[C@@]12CO2`, the T/C (T/C endpoint: mean tumor weight, dose: 0.15 mg/kg/injection, schedule: Q07DX005 (ip), vehicle: saline, evaluated on day 33) is 77 % of control [survivor count not shown]; the T/C (T/C endpoint: mean tumor weight, dose: 0.3 mg/kg/injection, schedule: Q07DX005 (ip), vehicle: saline, evaluated on day 33) was 100 % of control [survivor count not shown]; the T/C (T/C endpoint: mean tumor weight, dose: 1.2 mg/kg/injection, schedule: Q07DX005 (ip), vehicle: saline, evaluated on day 33) was 95 % of control [survivor count not shown].
On to `CC1=CC2OC3CC4OC(=O)/C=C/C=C/C(C(C)O)OCC/C(C)=C/C(=O)OCC2(CC1)C4(C)C31CO1` (stereo not given), for which the T/C was 139 % of control [survivor count not shown] (T/C endpoint: median tumor weight (est.), dose: 1.56 mg/kg/injection, schedule: Q07DX005 (ip), vehicle: saline, evaluated on day 32); 111 % of control [survivor count not shown] (T/C endpoint: median tumor weight (est.), dose: 6.25 mg/kg/injection, schedule: Q07DX005 (ip), vehicle: saline, evaluated on day 32); 137 % of control [survivor count not shown] (T/C endpoint: median tumor weight (est.), dose: 12.5 mg/kg/injection, schedule: Q07DX005 (ip), vehicle: saline, evaluated on day 32).
For the compound `CC(=O)O[C@@H]1[C@@H](O)[C@H]2O[C@@H]3C=C(C)C(=O)[C@@H](O)[C@]3(CO)[C@]1(C)[C@]21CO1`, the T/C runs as follows: (T/C endpoint: median tumor weight (est.), dose: 0.4 mg/kg/injection, schedule: Q07DX005 (ip), vehicle: saline, evaluated on day 30) 101 % of control [survivor count not shown]; (T/C endpoint: median tumor weight (est.), dose: 1.6 mg/kg/injection, schedule: Q07DX005 (ip), vehicle: saline, evaluated on day 30) 62 % of control [survivor count not shown].
As to `CC(=O)OCC12CC(O)C(C)=CC1OC1C(O)C(OC(C)=O)C2(C)C12CO2` (stereo not given), the T/C is, setting by setting: (T/C endpoint: median tumor weight (est.), dose: 0.31 mg/kg/injection, schedule: Q07DX005 (ip), vehicle: saline, evaluated on day 30) 54 % of control [survivor count not shown]; (T/C endpoint: median tumor weight (est.), dose: 0.62 mg/kg/injection, schedule: Q07DX005 (ip), vehicle: saline, evaluated on day 30) 89 % of control [survivor count not shown]; under setting [1], 71 % of control [survivor count not shown]; under setting [2], 34 % of control [survivor count not shown]; under setting [4], 60 % of control [survivor count not shown].
